## Screening data

From PubChem BioAssay record AID1508629 (NCATS, 2021).

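A luminescent viability counter-screen in SH-SY5Y cells, roughly two days of compound exposure, with a 4 h thapsigargin challenge at the end. Each compound ran as a titration series from about 0.00065 to 190 µM. The number is the fitted potency (AC50, nM) of the viability curve; a lower value means a more potent effect. Calls come from curve class and fit, so inconclusive covers weak, poorly fitted, top-dose-only or rising curves.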

Values are in nM. Every entry below has the call inconclusive. These entries are mostly ones the record files as inconclusive; other results of the assay are not listed here. Potencies fitted to partial, single-point or poorly fitting curves are rough. Some entries filed as inconclusive have a full curve. The first word of each remark tells which way the curve ran; it can be opposite to the aim of the assay.

structure,Potency (nM),remark
CCOC(=O)NC[C@H](Cc1ccc(OCCc2nc(-c3ccccc3)oc2C)cc1)N/C(C)=C\C(=O)c1ccc(C(F)(F)F)cc1,11220,"cytotoxic, full curve"
CC(C)(O)C1O[C@H]2CC[C@@]3(C)[C@@](O)(CC[C@H]4Cc5c([nH]c6ccccc56)[C@@]43C)C2=CC1=O (stereo partly specified),794.3,"rising, full curve, poor fit"
C1CCC[C@H]2CCCN3CC[C@H](CCCCCC[C@@H]4CCCN5CC[C@H](CC1)OC45)OC23,3548,"cytotoxic, single point"
O=C(O)Cn1cnnn1,446.7,"rising, full curve"
COc1ccc(C2Sc3ccccc3N(CCN(C)C)C(=O)[C@@H]2OC(C)=O)cc1 (stereo partly specified),141.3,"rising, full curve"
COc1ccc(-c2nc3cnc(N4CCN(C)CC4)nc3n(Cc3cccc(OC)c3)c2=O)cc1,79.4,"rising, full curve"
C[C@H]1C[C@H](O)c2ccsc2S1(=O)=O,446.7,"rising, full curve"
CC(C)N1CCN(c2ccc(C(=O)c3c(-c4ccc(O)cc4)sc4cc(O)ccc34)cc2)CC1,15848,"cytotoxic, partial curve"
CN1CC[C@@H]2CN3CCc4cccc(c43)[C@@H]2C1,10000,"cytotoxic, partial curve"
COCCn1c(=O)c(CCc2ccccc2)nc2cnc(N3CCNCC3)nc21,15848,"cytotoxic, partial curve, poor fit"
COc1cccc(-c2ccc3ncnc(N4CCN(C)CC4)c3c2)c1,31622,"cytotoxic, partial curve, poor fit"
O=c1[nH]ccc2c(S(=O)(=O)N3CCCNCC3)cccc12,316.2,"rising, full curve"
COc1cccc(-c2nc(N3CCN(C)CC3)c3ccccc3n2)c1,177.8,"rising, full curve, poor fit"
O=C(O)CCC(=O)N1CCCC1C(=O)O (stereo unspecified),70.8,"rising, full curve, poor fit"
Oc1cc(O)cc(/C=C/c2ccc(O)c(O)c2)c1,39810,"cytotoxic, partial curve"
COc1ccc(-n2c(=O)c(C)nc3cnc(N4CCNCC4)nc32)cc1,10000,"cytotoxic, partial curve, poor fit"
Cc1ccccc1-c1nc(N2CCNCC2)c2ccccc2n1,14125,"cytotoxic, partial curve"
CSc1ccccc1N1CCN(CCCCCC(=O)NC2CCCc3ccccc32)CC1 (stereo unspecified),12589,"cytotoxic, full curve"
c1ccc(-c2ccc(C(c3ccccc3)n3ccnc3)cc2)cc1 (stereo unspecified),89.1,"rising, full curve"
CN1CCN(c2ncnc3ccc(-c4ccccc4C#N)cc23)CC1,125.9,"rising, full curve"
CN(CCCN1c2ccccc2CCc2ccccc21)CC(=O)c1ccc(Cl)cc1,199.5,"rising, full curve, poor fit"
COc1cccc(Cn2c(=O)c(-c3ccccc3)nc3cnc(N4CCNCC4)nc32)c1,11220,"cytotoxic, full curve"
C[C@@H](NCc1cc(Br)cc2[nH]c(=O)c(=O)[nH]c12)P(=O)(O)O,14125,"cytotoxic, partial curve, poor fit"
Oc1cc2c(cc1O)CN(C(=S)NCCc1ccc(Cl)cc1)CCC2,112.2,"rising, full curve"
O=C(Nc1ccc(Oc2ccc(Cl)cc2)c(Cl)c1)c1cc(I)cc(I)c1O,25118,"cytotoxic, partial curve"
COc1cc2c(cc1OC)[C@H](C)N(CC1C(=O)O[C@@H]3C[C@@]4(C)CCC[C@H](C)[C@@]45OC5[C@H]13)CC2 (stereo partly specified),22387,"cytotoxic, partial curve"
COCCn1c(=O)c(-c2cc(F)cc(F)c2)nc2cnc(N3CCNCC3)nc21,79.4,"rising, full curve"
Cn1cc(C2=C(c3ccc(Cl)cc3Cl)C(=O)NC2=O)c2ccccc21,251.2,"rising, full curve"
CN1CCN(c2ncc3nc(-c4cccs4)c(=O)n(C[C@H]4CCCO4)c3n2)CC1,125.9,"rising, full curve"
COc1ccccc1CNc1ncnc2ccc(-c3ccccc3CN(C)C)cc12,14125,"cytotoxic, partial curve, poor fit"
COc1cc(-c2ccc(N=Nc3ccc4c(S(=O)(=O)O)cc(S(=O)(=O)O)c(N)c4c3O)c(OC)c2)ccc1N=Nc1ccc2c(S(=O)(=O)O)cc(S(=O)(=O)O)c(N)c2c1O,15848,"cytotoxic, partial curve"
CCCCCCC[n+]1ccc(-c2cc[n+](CCCCCCC)cc2)cc1,5012,"cytotoxic, full curve"

The last 4 entries again:

{"structure": "CN1CCN(c2ncc3nc(-c4cccs4)c(=O)n(C[C@H]4CCCO4)c3n2)CC1", "Potency (nM)": "125.9", "remark": "rising, full curve"}
{"structure": "COc1ccccc1CNc1ncnc2ccc(-c3ccccc3CN(C)C)cc12", "Potency (nM)": "14125", "remark": "cytotoxic, partial curve, poor fit"}
{"structure": "COc1cc(-c2ccc(N=Nc3ccc4c(S(=O)(=O)O)cc(S(=O)(=O)O)c(N)c4c3O)c(OC)c2)ccc1N=Nc1ccc2c(S(=O)(=O)O)cc(S(=O)(=O)O)c(N)c2c1O", "Potency (nM)": "15848", "remark": "cytotoxic, partial curve"}
{"structure": "CCCCCCC[n+]1ccc(-c2cc[n+](CCCCCCC)cc2)cc1", "Potency (nM)": "5012", "remark": "cytotoxic, full curve"}